Values quoted from earlier work as cited in article PMC11263240 (Pharmaceutical Research, 2024).

Tests used:
[1] = cited from earlier work
[2] = ciprofloxacin 7 mg/kg intravenous, tariquidar 15 mg/kg, male Wistar rats; cited from earlier work

O=C(O)c1cn(C2CC2)c2cc(N3CCNCC3)c(F)cc2c1=O [ciprofloxacin]
effect of tariquidar on plasma pharmacokinetics [1]: no effect | plasma AUC0-∞ with tariquidar co-administration [2]: significantly higher
